# Assay results published in publication PMC7713115.
# Amino acid sequences for entries named in this document (tags omitted).
# UniProt Q99816: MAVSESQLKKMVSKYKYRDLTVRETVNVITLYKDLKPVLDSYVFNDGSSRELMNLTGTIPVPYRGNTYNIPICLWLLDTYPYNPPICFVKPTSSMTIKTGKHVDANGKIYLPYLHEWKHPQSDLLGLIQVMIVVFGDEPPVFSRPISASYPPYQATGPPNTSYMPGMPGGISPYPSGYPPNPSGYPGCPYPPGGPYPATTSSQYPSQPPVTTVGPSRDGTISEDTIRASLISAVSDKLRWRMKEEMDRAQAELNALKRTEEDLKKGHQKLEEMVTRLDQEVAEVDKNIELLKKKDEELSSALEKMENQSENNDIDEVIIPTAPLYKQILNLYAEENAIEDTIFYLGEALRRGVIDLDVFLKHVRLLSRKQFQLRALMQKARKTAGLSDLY
# No constants are given. Whether binding was seen depends on the method and setting. Some binding calls cover weakened binding; strength is not graded here.
# Target: LexA-Tsg101 (human) (UniProt Q99816)
# Assay: two-hybrid; LexA-based; LexA-Tsg101 bait (LexA(1-202)+PL-TSG101) and GAD-GK-PTAP prey in strain CTY10-5d with the lexAop-lacZ reporter; beta-galactosidase filter assay
substance,measurement,value
GAD-GK-PTAP (from UniProt P35557 1-465),binding,binds
